Drawing on publication PMC12806248, this text covers binding for five molecules.

Protein sequences, listed by entry. Tags and fused reporters are not part of them.
UniProt P50990: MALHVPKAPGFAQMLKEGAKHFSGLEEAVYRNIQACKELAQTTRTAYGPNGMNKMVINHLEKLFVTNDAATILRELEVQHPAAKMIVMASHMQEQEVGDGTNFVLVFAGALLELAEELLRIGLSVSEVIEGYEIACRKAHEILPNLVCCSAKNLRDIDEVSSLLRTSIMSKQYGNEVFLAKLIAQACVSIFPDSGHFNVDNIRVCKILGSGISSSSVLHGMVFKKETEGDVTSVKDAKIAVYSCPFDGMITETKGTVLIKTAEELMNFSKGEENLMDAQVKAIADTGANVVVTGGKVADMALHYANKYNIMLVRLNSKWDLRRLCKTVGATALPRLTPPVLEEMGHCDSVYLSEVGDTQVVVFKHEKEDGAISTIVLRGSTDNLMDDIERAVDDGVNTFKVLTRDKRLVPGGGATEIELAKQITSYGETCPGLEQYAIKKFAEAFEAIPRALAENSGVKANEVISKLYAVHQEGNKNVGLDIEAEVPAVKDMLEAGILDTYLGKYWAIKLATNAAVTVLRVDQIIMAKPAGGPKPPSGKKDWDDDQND

No constants are given. Whether binding was seen depends on the method and setting. In cells and extracts the contact can be indirect. Some entries that bind do so weakly or less than the wild type. For some of these results: Tags and fused reporters may be left off the sequences shown.

In test [1] the target is FLAG-DCAF12 (human), expressed in HEK293T (human) (UniProt Q5T6F0). As to the kind of experiment: co-IP; reciprocal: HEK293T co-expressing HA-tagged TRiC/CCT subunits and FLAG-DCAF12; anti-FLAG beads, anti-HA immunoblot. (In general: In western blotting, separated proteins are transferred to a membrane and probed.)
Test [2] concerns the target endogenously HA-tagged DCAF12 (A549, CRISPR/Cas9 knock-in) (human (endogenous in A549)) (UniProt Q5T6F0). In words: co-IP; A549 cells with endogenously HA-tagged DCAF12; anti-HA IP, immunoblot of endogenous partners.
The target of another test is T1, HA-CCT4 (human) (human) (UniProt P50991).
T1 sequence: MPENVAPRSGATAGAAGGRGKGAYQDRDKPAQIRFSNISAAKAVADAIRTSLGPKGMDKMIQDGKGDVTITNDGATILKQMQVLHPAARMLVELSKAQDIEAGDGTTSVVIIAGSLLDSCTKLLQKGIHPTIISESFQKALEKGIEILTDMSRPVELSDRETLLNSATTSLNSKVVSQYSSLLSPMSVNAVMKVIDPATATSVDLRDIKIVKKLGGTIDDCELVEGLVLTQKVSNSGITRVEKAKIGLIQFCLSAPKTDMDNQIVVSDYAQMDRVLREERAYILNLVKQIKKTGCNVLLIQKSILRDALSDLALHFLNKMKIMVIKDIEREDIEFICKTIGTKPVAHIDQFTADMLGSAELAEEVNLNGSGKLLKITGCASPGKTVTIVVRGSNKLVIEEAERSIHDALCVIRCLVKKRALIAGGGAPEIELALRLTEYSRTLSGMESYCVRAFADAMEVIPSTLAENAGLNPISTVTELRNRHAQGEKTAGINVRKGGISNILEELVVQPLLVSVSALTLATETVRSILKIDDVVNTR
In words: co-IP; HEK293T co-expressing HA-tagged TRiC/CCT subunits and FLAG-DCAF12; anti-HA beads, anti-FLAG immunoblot.

Another test concerns the target HA-TCP1 (human) (human) (UniProt P17987). Described as above.
For the next test, the target named is T2, HA-CCT3 (human) (human) (UniProt P49368).
T2 sequence: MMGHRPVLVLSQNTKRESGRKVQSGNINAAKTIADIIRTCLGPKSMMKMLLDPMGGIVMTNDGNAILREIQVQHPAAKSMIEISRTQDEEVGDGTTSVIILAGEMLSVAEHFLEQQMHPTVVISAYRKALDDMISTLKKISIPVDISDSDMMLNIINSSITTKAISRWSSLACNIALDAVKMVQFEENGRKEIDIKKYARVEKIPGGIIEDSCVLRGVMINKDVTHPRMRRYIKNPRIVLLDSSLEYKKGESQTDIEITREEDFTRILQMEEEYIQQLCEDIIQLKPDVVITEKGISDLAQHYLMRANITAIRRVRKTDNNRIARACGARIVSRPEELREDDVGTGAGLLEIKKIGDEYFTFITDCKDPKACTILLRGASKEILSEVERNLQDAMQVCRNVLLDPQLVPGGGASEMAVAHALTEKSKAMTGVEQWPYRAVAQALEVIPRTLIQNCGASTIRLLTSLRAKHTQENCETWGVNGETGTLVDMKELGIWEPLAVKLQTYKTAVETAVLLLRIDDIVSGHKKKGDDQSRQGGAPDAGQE
The description is as above.

The target of a further test is HA-CCT6A (human) (human) (UniProt P40227). Described as above.
The target of another test is T3, HA-CCT2 (human) (human) (UniProt P78371).
T3 sequence: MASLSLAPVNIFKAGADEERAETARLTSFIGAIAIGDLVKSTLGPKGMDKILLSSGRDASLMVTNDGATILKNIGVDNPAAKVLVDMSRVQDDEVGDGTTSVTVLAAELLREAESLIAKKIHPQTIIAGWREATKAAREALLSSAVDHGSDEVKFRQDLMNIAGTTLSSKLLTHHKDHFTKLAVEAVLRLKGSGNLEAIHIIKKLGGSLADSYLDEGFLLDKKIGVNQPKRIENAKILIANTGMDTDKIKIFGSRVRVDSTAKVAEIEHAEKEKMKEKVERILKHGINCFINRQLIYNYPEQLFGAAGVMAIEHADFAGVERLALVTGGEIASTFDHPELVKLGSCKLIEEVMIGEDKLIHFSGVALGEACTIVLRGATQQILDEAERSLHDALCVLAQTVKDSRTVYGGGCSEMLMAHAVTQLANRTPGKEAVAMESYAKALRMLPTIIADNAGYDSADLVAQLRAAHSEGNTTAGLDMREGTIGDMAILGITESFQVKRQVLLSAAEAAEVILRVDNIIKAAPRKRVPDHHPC
The description is as above.

The target of a further test is HA-CCT8 (human) (human) (UniProt P50990). The description is as above.

Regarding “HA-CCT8 (human) (from UniProt P50990 1-548)”, the binding entry in test [1] is recorded as “binds”.
On to “CCT8, human, endogenous in A549 (from UniProt P50990 1-548)”, for which the binding entry in test [2] is on record as “binds”.
For “FLAG-DCAF12 (human), expressed in HEK293T (from UniProt Q5T6F0 1-453)”, the binding result in the test with HA-CCT4 (human) (human), with HA-TCP1 (human) (human), with HA-CCT3 (human) (human), with HA-CCT6A (human) (human), with HA-CCT2 (human) (human) and in the test with HA-CCT8 (human) (human) was “binds” throughout.

B1: HA-CCT2 (human) (protein, UniProt P78371 1-535)
chain: T3 sequence
Regarding B1, the binding result in test [1] was “binds”.

B2: CCT2, human, endogenous in A549 (protein, UniProt P78371 1-535)
chain: T3 sequence
B2: the binding entry in test [2] is “binds”.
